Data published in article PMC11214632.
Results are given in words; binding and its absence hold for the method and conditions named. Binding seen in cells or lysates may run through a third protein. Some binding calls cover weakened binding; strength is not graded here. One block for each molecule: values may come before it.

Chains of the proteins cited; added tags and fusions are not shown.
UniProt Q99J95: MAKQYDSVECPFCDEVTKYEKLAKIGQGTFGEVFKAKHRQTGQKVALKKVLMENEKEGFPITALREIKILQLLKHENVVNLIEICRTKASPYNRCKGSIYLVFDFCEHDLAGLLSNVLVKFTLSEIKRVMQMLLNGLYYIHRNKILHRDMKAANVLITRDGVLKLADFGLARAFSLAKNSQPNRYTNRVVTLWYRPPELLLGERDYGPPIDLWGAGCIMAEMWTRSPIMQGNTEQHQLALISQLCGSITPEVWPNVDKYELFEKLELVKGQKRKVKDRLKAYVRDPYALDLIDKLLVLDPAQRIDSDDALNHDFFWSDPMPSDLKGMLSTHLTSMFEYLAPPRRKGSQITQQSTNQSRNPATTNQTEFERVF

Assays:
[1] = target: T1, Tripartite motif-containing 33 (TRIM33) (mouse (endogenous in C57BL/6 BM Lin–FLT3+ cells and in Mutu DC1940 cells)) (UniProt Q99PP7); assay: co-IP; lysates of Mutu DC1940 cells precipitated with anti-TRIM33 antibody, anti-CDK9 antibody or IgG at 4 °C overnight, Protein A + G magnetic beads, Western blot
T1 sequence: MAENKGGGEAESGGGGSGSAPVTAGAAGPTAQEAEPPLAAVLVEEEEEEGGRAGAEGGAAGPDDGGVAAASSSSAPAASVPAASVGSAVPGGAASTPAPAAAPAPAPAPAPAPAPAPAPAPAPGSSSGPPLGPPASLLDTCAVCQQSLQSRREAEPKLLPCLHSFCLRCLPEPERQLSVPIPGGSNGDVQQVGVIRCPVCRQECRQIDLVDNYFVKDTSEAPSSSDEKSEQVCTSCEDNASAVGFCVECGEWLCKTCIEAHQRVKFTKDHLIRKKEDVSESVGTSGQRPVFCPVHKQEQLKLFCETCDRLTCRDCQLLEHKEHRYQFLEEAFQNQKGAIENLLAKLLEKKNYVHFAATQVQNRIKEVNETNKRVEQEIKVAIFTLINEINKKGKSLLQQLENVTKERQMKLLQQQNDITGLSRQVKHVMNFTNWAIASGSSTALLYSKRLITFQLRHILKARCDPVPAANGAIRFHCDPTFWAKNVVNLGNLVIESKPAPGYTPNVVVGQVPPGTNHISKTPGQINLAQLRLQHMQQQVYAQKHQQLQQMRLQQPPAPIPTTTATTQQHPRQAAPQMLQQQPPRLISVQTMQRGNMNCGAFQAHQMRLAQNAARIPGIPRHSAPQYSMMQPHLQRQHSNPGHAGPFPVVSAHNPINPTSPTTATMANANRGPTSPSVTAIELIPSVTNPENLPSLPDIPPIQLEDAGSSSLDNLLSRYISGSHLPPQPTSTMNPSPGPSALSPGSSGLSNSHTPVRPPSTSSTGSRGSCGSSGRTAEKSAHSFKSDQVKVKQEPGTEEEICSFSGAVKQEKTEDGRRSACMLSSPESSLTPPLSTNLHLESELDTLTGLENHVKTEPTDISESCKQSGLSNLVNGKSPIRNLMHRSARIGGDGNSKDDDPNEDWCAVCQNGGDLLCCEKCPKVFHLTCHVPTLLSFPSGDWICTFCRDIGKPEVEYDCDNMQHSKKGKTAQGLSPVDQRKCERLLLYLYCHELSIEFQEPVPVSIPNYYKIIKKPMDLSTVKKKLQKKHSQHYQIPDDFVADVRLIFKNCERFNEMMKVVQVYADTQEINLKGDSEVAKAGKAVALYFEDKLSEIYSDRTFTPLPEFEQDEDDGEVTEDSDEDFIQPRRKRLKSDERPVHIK

[2] = target: cyclin-dependent kinase 9 (CDK9) (mouse (endogenous in C57BL/6 BM Lin–FLT3+ cells and in Mutu DC1940 cells)) (UniProt Q99J95); assay: as above

binding [1]: binds
Molecule: cyclin-dependent kinase 9 (CDK9) (from UniProt Q99J95 1-372)

binding [2]: binds
B1: Tripartite motif-containing 33 (TRIM33) (protein, UniProt Q99PP7 1-1142)
chain: T1 sequence
